Results published in paper PMC9780223.
No constants are given. Whether binding was seen depends on the method and setting. Some entries that bind do so weakly or less than the wild type. Tags and fused reporters may be left off the sequences shown. One block for each binder: values may come before it.

The chains behind the UniProt entries cited, without tags or fusion partners. Residues count along the entry.
UniProt Q13219, residues 82-1627: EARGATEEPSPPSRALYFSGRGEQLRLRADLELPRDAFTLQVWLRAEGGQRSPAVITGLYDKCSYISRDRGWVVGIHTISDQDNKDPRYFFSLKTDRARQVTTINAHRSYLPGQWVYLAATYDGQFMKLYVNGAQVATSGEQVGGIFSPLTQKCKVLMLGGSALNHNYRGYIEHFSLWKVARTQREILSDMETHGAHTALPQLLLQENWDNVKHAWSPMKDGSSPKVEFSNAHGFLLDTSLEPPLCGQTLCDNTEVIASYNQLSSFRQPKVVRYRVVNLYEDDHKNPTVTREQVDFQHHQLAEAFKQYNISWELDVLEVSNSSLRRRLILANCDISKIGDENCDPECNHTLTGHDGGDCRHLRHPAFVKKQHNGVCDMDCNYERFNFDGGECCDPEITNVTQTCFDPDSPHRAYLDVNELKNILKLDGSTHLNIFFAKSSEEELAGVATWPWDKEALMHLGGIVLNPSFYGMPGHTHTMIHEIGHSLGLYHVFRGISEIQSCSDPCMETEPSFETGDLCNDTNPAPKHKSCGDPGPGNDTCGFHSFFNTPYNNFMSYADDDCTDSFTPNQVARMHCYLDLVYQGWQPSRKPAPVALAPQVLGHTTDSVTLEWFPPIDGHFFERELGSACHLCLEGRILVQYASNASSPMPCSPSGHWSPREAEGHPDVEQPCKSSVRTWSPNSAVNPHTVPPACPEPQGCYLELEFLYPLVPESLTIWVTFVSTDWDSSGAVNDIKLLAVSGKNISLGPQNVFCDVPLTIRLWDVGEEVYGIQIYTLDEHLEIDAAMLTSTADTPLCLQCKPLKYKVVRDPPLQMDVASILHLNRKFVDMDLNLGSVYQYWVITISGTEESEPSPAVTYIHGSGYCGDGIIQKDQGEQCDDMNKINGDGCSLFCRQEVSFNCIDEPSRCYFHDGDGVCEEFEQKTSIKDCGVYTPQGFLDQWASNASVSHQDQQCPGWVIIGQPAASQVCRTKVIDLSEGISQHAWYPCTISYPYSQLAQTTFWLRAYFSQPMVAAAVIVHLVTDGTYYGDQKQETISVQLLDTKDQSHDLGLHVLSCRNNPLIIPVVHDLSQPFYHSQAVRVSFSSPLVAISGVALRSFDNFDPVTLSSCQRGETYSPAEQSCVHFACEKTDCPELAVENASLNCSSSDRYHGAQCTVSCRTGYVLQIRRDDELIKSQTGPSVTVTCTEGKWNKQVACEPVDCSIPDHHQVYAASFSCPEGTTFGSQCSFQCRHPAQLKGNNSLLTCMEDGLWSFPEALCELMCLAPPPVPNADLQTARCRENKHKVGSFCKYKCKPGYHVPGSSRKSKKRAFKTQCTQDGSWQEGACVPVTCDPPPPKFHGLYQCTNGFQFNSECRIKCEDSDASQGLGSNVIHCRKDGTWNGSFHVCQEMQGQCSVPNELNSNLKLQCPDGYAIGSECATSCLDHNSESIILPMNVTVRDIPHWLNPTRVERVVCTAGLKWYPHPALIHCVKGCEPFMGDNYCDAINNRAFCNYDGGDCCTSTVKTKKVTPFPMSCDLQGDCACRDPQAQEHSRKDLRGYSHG

Columns and labels:
[1] = biological target: recombinant wild-type PAPP-A, MBP-His10 tagged (human) (UniProt Q13219); assay: gel of covalent complexes (lanes of Supplementary Fig. S10b, c); PAPP-A WT or C1130S alone or with proMBP or STC2; kind of gel and samples not shown
[2] = biological target: proform of eosinophil major basic protein (proMBP), endogenous, from pregnant human plasma (human (endogenous in pregnant plasma)) (UniProt P13727); assay: cryo-EM structure; PAPP-A·proMBP complex purified from pregnant human plasma, 0.2 mg/mL, in PBS pH 7.4; 2:2 map with C2 symmetry and half map after symmetry expansion; both purified

binding [1]: binds
B1: recombinant proMBP (modulator protein) (protein, UniProt P13727 17-222)
chain: LHLRSETSTFETPLGAKTLPEDEETPEQEMEETPCRELEEEEEWGSGSEDASKKDGAVESISVPDMVDKNLTCPEEEDTVKVVGIPGCQTCRYLLVRSLQTFSQAWFTCRRCYRGNLVSIHNFNINYRIQCSVSALNQGQVWIGGRITGSGRCRRFQWVDGSRWNFAYWAAHQPWSRGGHCVALCTRGGHWRRAHCLRRLPFICSY

binding [2]: no binding
B2: proform of eosinophil major basic protein (proMBP), endogenous, from pregnant human plasma (protein, UniProt P13727 17-222)
chain: B1 chain
